From PubChem BioAssay AID328 (DTP/NCI, 2004)
The list shows only some results of the screen, not a fair sample: it gathers tests that were run many times, whatever their T/C, doses with no T/C, and many T/C values between a quarter and a half above the control. Other doses and runs of a compound stand elsewhere. T/C gives the treated animals as a percentage of the vehicle group. Some entries give survivors of the animals treated and no T/C: the source holds a T/C of zero for them, seemingly a mark for toxic or unscored doses. Some doses without a T/C left all or most animals alive at the check, yet need not have been tolerated: survival well below the control is almost never listed, so the zero probably covers shortened survival too. Survivors were counted at the toxicity check, usually on the fifth day, unless a day is given; later deaths do not show. Schedule codes are those of the source, taken here to give the interval after Q, in days (D) or hours (H), and the number of doses after X. Where survival is the endpoint, the PubChem record calls one and a half times the control and up active, and a quarter to a half above the control has no call in these data; cut-offs in other NCI protocols can differ. Some T/C values are followed by the survivors on the day toxicity was checked, most often the fifth; where none is given, no animal had died by that day.

System: BDF1 mice, P388 leukemia ip, median survival T/C
Test: NCI In Vivo Anticancer Drug Screen. Data for tumor model P388 Leukemia (intraperitoneal) in B6D2F1 (BDF1) mice
Conditions: T/C endpoint: median survival time, higher T/C = longer survival
How it was run: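 Each value expresses how treatment altered survival: treated-mouse outcome over vehicle-mouse outcome, both groups bearing the transplanted tumour.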

[1] = dose: 25.0 mg/kg/injection, schedule: Q01DX009 (ip), vehicle: saline
[2] = dose: 100.0 mg/kg/injection, schedule: Q01DX009 (ip), vehicle: saline
[3] = dose: 25.0 mg/kg/injection, schedule: Q01DX009 (ip), vehicle: water
[4] = dose: 100.0 mg/kg/injection, schedule: Q01DX009 (ip), vehicle: water
[5] = dose: 400.0 mg/kg/injection, schedule: Q04DX003 (ip), vehicle: water
[6] = dose: 400.0 mg/kg/injection, schedule: Q01DX009 (ip), vehicle: saline
[7] = dose: 400.0 mg/kg/injection, schedule: Q01DX009 (ip), vehicle: water
[8] = dose: 50.0 mg/kg/injection, schedule: Q01DX009 (ip), vehicle: saline
[9] = dose: 20.0 mg/kg/injection, schedule: Q01DX009 (ip), vehicle: saline with Tween-80
[10] = dose: 400.0 mg/kg/injection, schedule: Q04DX003 (ip), vehicle: saline
[11] = dose: 100.0 mg/kg/injection, schedule: Q01DX009 (ip), vehicle: saline with Tween-80
[12] = dose: 200.0 mg/kg/injection, schedule: Q01DX009 (ip), vehicle: saline with Tween-80

## Cc1cc(NCCCNCCCNc2cc(C)nc3cc(N)ccc23)c2ccc(N)cc2n1
dose: 3.13 mg/kg/injection, schedule: Q01DX009 (ip), vehicle: other
  T/C: 125 % of control
dose: 6.25 mg/kg/injection, schedule: Q01DX009 (ip), vehicle: other
  T/C: 131 % of control
dose: 12.5 mg/kg/injection, schedule: Q01DX009 (ip), vehicle: other
  T/C: 142 % of control [4 of 6 alive]
dose: 25.0 mg/kg/injection, schedule: Q01DX009 (ip), vehicle: other
  survivor count: 0 of 6
dose: 50.0 mg/kg/injection, schedule: Q01DX009 (ip), vehicle: other
  survivor count: 0 of 6

## N#CC(O)c1ccccc1 (configuration not stated)
dose: 20.0 mg/kg/injection, schedule: Q01DX010 (ip), vehicle: acetone
  survivor count: 0 of 6

## Oc1cccnc1CN1CCCCC1
[1]
  survivor count: 2 of 6
[2]
  survivor count: 4 of 6

## CC[N+](CC)(CC)CCC[N+](CC)(CC)CC
[3]
  survivor count: 6 of 6
[4]
  T/C: 126 % of control
dose: 200.0 mg/kg/injection, schedule: Q01DX009 (ip), vehicle: water
  survivor count: 1 of 6
[5]
  survivor count: 2 of 6

## CNCCN(C)CCN(C)Cc1ccc(OC)cc1
[3]
  T/C: 129 % of control
dose: 50.0 mg/kg/injection, schedule: Q01DX009 (ip), vehicle: water
  T/C: 131 % of control
[4]
  T/C: 125 % of control
[6]
  survivor count: 2 of 6
[7]
  T/C: 135 % of control
  survivor count: 0 of 6
dose: 500.0 mg/kg/injection, schedule: Q01DX009 (ip), vehicle: water
  survivor count: 0 of 6

## C#CC(N)=O
dose: 50.0 mg/kg/injection, schedule: Q04DX003 (ip), vehicle: Klucel (hydroxypropylcellulose) (HPC)
  survivor count: 0 of 6

## OCC1OC(n2cnc3c(SSc4ncnc5c4ncn5C4OC(CO)C(O)C4O)ncnc32)C(O)C1O (configuration not stated)
dose: 267.0 mg/kg/injection, schedule: Q01DX010 (ip), vehicle: saline
  survivor count: 6 of 6
dose: 400.0 mg/kg/injection, schedule: Q01DX010 (ip), vehicle: saline
  survivor count: 6 of 6

## NS(=O)(=O)c1cc([N+](=O)[O-])ccc1Cl
dose: 400.0 mg/kg/injection, schedule: Q04DX003 (ip), vehicle: Klucel (hydroxypropylcellulose) (HPC)
  survivor count: 3 of 6

## COC1=C(OC)C(=O)C2=C(OCCO2)C1=O
dose: 200.0 mg/kg/injection, schedule: Q01DX001 (ip), vehicle: saline with Tween-80
  survivor count: 0 of 6
dose: 400.0 mg/kg/injection, schedule: Q01DX001 (ip), vehicle: saline with Tween-80
  survivor count: 0 of 6

## CCC[P+](c1ccccc1)(c1ccccc1)c1ccccc1
dose: 16.0 mg/kg/injection, schedule: Q01DX009 (ip), vehicle: saline
  T/C: 145 % of control
[1]
  T/C: 141 % of control
dose: 37.5 mg/kg/injection, schedule: Q01DX009 (ip), vehicle: saline
  survivor count: 6 of 6

## CC(=O)Nc1ccc(S(=O)(=O)Oc2ccc([N+](=O)[O-])cc2)cc1
[8]
  survivor count: 6 of 6
[2]
  survivor count: 6 of 6
dose: 200.0 mg/kg/injection, schedule: Q01DX009 (ip), vehicle: saline
  survivor count: 6 of 6
[6]
  survivor count: 6 of 6

## C/C=C1/C[C@@H](C)[C@@](C)(O)C(=O)OCC2=CCN3CC[C@@H](OC1=O)[C@@H]23
dose: 120.0 mg/kg/injection, schedule: Q01DX010 (ip), vehicle: steroid suspending solution
  survivor count: 6 of 6

## CC1(C)c2c3ccccc3cc3cccc(c23)[S+]1c1ccccc1 (configuration not stated)
dose: 5.0 mg/kg/injection, schedule: Q01DX009 (ip), vehicle: saline with Tween-80
  T/C: 125 % of control
[9]
  survivor count: 3 of 6

## CC1CN1c1cc(O)c(N2CC2C)cc1O (configuration not stated)
dose: 0.88 mg/kg/injection, schedule: Q01DX009 (ip), vehicle: saline with Tween-80
  T/C: 145 % of control [5 of 6 alive]
dose: 2.2 mg/kg/injection, schedule: Q04DX003 (ip), vehicle: saline with Tween-80
  T/C: 136 % of control
dose: 3.3 mg/kg/injection, schedule: Q04DX003 (ip), vehicle: saline with Tween-80
  T/C: 140 % of control
dose: 7.5 mg/kg/injection, schedule: Q01DX009 (ip), vehicle: saline with Tween-80
  T/C: 135 % of control
[9]
  survivor count: 6 of 6

## O=c1[nH]c2c(ccc3cccnc32)c2c1CCC2
dose: 200.0 mg/kg/injection, schedule: Q04DX003 (ip), vehicle: saline with Tween-80
  survivor count: 6 of 6

## NNc1c(C(N)=O)c2c(N)ncnc2n1C1OC(CO)C(O)C1O (configuration not stated)
[5]
  survivor count: 2 of 6

## [Cu+2].[NH-]C1C(Cl)CCC2C(Cl)CC[N-]C12 (configuration not stated)
dose: 100.0 mg/kg/injection, schedule: Q01DX001 (ip), vehicle: Klucel (hydroxypropylcellulose) (HPC)
  survivor count: 0 of 6
dose: 200.0 mg/kg/injection, schedule: Q01DX001 (ip), vehicle: Klucel (hydroxypropylcellulose) (HPC)
  survivor count: 0 of 6
dose: 400.0 mg/kg/injection, schedule: Q01DX001 (ip), vehicle: Klucel (hydroxypropylcellulose) (HPC)
  survivor count: 0 of 6

## CCOC(=O)/C(C#N)=N\O
[2]
  survivor count: 2 of 6

## O=C1NC(=O)C2(CCCc3ccc(N(CCCl)CCCl)cc32)N1 (configuration not stated)
dose: 3.13 mg/kg/injection, schedule: Q04DX003 (ip), vehicle: saline with Tween-80
  T/C: 145 % of control
dose: 400.0 mg/kg/injection, schedule: Q04DX003 (ip), vehicle: saline with Tween-80
  survivor count: 2 of 6

## Cc1ncc(CSC(=N)N)n1Cc1ccccc1
dose: 20.0 mg/kg/injection, schedule: Q01DX009 (ip), vehicle: saline
  T/C: 130 % of control
dose: 33.0 mg/kg/injection, schedule: Q01DX009 (ip), vehicle: saline
  T/C: 135 % of control
[8]
  T/C: 144 % of control
dose: 75.0 mg/kg/injection, schedule: Q01DX009 (ip), vehicle: saline
  T/C: 126 % of control

## CC(C)n1c2c([n+](C)c1/C=C/c1ccccc1)C(=O)c1ccccc1C2=O
dose: 1.0 mg/kg/injection, schedule: Q01DX009 (ip), vehicle: saline with Tween-80
  T/C: 126 % of control
dose: 1.0 mg/kg/injection, schedule: Q01DX010 (ip), vehicle: saline
  T/C: 127 % of control
dose: 2.0 mg/kg/injection, schedule: Q01DX009 (ip), vehicle: Klucel (hydroxypropylcellulose) (HPC)
  survivor count: 4 of 6
dose: 2.0 mg/kg/injection, schedule: Q01DX009 (ip), vehicle: saline with Tween-80
  survivor count: 4 of 6
dose: 4.0 mg/kg/injection, schedule: Q01DX009 (ip), vehicle: Klucel (hydroxypropylcellulose) (HPC)
  survivor count: 3 of 6
dose: 4.0 mg/kg/injection, schedule: Q01DX009 (ip), vehicle: saline with Tween-80
  survivor count: 2 of 6
dose: 4.0 mg/kg/injection, schedule: Q01DX010 (ip), vehicle: saline
  survivor count: 3 of 6

## CNC(=O)OCCN(CCOC(=O)NC)C(=O)N1c2ccccc2Sc2ccccc21
dose: 50.0 mg/kg/injection, schedule: Q01DX009 (ip), vehicle: saline with Tween-80
  T/C: 142 % of control

## O/N=c1/cc(-c2ccc(Cl)cc2)ss1
[8]
  T/C: 131 % of control
dose: 200.0 mg/kg/injection, schedule: Q04DX003 (ip), vehicle: saline
  T/C: 130 % of control
[10]
  T/C: 130 % of control
  survivor count: 3 of 6
dose: 500.0 mg/kg/injection, schedule: Q04DX003 (ip), vehicle: saline
  survivor count: 4 of 6

## C1CCC(=[N+]2CCCC2)CC1
[10]
  survivor count: 2 of 6

## O=C1NC(=O)C2C3C=CC(C12)C1C2C(=O)NC(=O)C2C31 (configuration not stated)
dose: 25.0 mg/kg/injection, schedule: Q01DX009 (ip), vehicle: saline with Tween-80
  T/C: 137 % of control
[11]
  survivor count: 6 of 6
[12]
  survivor count: 2 of 6
dose: 400.0 mg/kg/injection, schedule: Q01DX009 (ip), vehicle: saline with Tween-80
  survivor count: 0 of 6

## CCCCCCCCCCCCN1CCCC(C)C1 (configuration not stated)
[11]
  survivor count: 5 of 6
[12]
  survivor count: 2 of 6
